Results are given in words; binding and its absence hold for the method and conditions named. Binding seen in cells or lysates may run through a third protein. Some entries that bind do so weakly or less than the wild type.
Biological target: Fibroblast growth factor receptor 2 (FGFR2), C-terminally labelled with GFP or mCherry (UniProt P21802)
Assay: FRET or BRET; serum-starved HEK293T transfected with FGFR2-GFP (donor) and FGFR2-mCherry (acceptor); confocal images of fixed cells, GFP 488/518 nm, mCherry 555/585 nm, FRET 488/585 nm; control (SC) and GRB2-depleted (G1) cells

Protein sequences, listed by entry. Tags and fused reporters are not part of them. Residues count along the entry.
UniProt P21802, residues 22-821: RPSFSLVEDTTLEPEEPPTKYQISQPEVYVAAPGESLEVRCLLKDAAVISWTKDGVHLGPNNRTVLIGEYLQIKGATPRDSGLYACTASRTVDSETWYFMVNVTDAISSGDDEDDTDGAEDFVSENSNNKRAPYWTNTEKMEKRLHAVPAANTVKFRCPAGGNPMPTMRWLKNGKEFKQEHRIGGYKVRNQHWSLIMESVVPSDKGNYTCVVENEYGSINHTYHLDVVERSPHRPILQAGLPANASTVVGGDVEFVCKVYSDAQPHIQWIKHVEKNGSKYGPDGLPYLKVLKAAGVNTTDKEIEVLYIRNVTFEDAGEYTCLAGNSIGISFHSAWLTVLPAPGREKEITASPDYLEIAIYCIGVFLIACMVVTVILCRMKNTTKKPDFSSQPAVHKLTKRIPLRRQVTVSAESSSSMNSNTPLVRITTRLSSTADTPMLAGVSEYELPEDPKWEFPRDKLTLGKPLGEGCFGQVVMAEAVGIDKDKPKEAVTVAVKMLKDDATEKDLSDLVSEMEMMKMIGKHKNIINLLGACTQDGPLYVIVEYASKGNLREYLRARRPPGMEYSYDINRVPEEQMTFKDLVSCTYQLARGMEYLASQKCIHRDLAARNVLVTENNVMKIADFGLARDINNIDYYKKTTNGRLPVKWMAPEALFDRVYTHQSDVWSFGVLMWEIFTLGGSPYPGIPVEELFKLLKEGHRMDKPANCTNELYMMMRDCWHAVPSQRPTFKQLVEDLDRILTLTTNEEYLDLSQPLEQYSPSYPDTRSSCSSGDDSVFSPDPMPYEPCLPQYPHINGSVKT

binding: binds
Substance: Fibroblast growth factor receptor 2 (FGFR2), C-terminally labelled with GFP or mCherry (from UniProt P21802 22-821)

— article PMC7969938
